The list does not hold the whole screen: it covers a few groups of compounds. Not every dose and run of a compound is shown. T/C gives the treated animals as a percentage of the vehicle group. Schedules are NCI's codes, taken here to give the interval after Q, in days (D) or hours (H), and the number of doses after X. Some T/C values carry the count of animals alive at the toxicity check; without a count or a note in brackets, all were alive then. Some doses have a count of surviving animals in place of a T/C: the source holds a T/C of zero for them, seemingly a mark for toxic or unscored doses. Survivors were counted at the toxicity check; its day is shown where the source gives one, and later deaths do not show.
System: HT29 xenograft, nude mice, s.c., tumor weight T/C%
Test: NCI In Vivo Anticancer Drug Screen. Data for tumor model HT29;CX-1 Human Adenocarcinoma (MER+) (subcutaneous) in NU/NU Swiss (nude) mice
Details: T/C endpoint: optimum tumor weight change, schedule: Q04DX003 (ip), higher T/C = larger tumour; for T/C: evaluated on day 34
Procedure: The antitumor activity of compounds was measured in mice bearing transplantable tumors. Survival or tumor size were measured and the results are expressed as the measurement made in the treated group (T) divided by the measurement made in the vehicle treated control group (C). The tumor model used in this assay is HT29;CX-1 Human Adenocarcinoma (MER+) (subcutaneous) in NU/NU Swiss (nude) mice

SMILES	T/C (dose: 12.5 mg/kg/injection, vehicle: saline with Tween-80)	T/C (dose: 25.0 mg/kg/injection, vehicle: saline with Tween-80)	T/C (dose: 50.0 mg/kg/injection, vehicle: saline with Tween-80)	T/C (dose: 100.0 mg/kg/injection, vehicle: saline with Tween-80)	T/C (dose: 50.0 mg/kg/injection, vehicle: suspension in saline)	T/C (dose: 100.0 mg/kg/injection, vehicle: suspension in saline)	T/C (dose: 200.0 mg/kg/injection, vehicle: suspension in saline)	survivor count (dose: 400.0 mg/kg/injection, vehicle: suspension in saline)
Nc1cc([As]=O)ccc1O (stereo not drawn)	115 % of control	104 % of control	95 % of control	97 % of control				
CC1(C)CN1P(=O)(Nc1ncccn1)N1CC1(C)C (stereo not drawn)					51 % of control	38 % of control [4 of 5 alive on day 36]	54 % of control	3 of 5 on day 36
